Article PMC12090600
These are yes or no findings as the source states them, for the method shown. A result given as binding can be weak or reduced; the word gives no strength. For part of these data: Tags and fused reporters may be left off the sequences shown. For part of these data: Binding seen in cells or lysates may run through a third protein.

Key:
[1] = biological target: T1, Arginase-1 (endogenous, mouse) (mouse (endogenous in mouse macrophage cell line and BV2)) (UniProt Q61176); experiment: co-IP; BV2 cells infected with ME49wt or ME49Δcdpk3 at MOI of 3; IP of Arginase-1 from infected cell lysates; detected with rabbit polyclonal TgCDPK3 antibody
T1 sequence: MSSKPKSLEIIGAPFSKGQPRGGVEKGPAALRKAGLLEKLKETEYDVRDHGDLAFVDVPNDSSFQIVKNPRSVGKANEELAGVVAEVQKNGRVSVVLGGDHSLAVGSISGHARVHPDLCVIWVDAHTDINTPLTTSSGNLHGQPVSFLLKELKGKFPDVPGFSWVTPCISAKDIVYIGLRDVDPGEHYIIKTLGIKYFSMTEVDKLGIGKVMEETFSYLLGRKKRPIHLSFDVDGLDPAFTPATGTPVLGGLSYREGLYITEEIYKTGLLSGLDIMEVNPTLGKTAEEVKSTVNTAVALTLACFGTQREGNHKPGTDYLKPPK

[2] = biological target: TgCDPK3-GST (Toxoplasma gondii (ME49 strain)); experiment: pull-down; TgCDPK3-GST or GST on glutathione magnetic agarose beads, incubated with purified Arginase-1-His at 4 °C for 2 h; washed with PBS with 1% Triton X-100; anti-His blot; both purified
[3] = biological target: TgCDPK3-GFP (Toxoplasma gondii (ME49 strain)); experiment: co-IP; 293T lysates; anti-GFP antibody on Protein A + G affinity gel for 4 h; blotted with anti-GFP and anti-Arginase-1

Molecule: endogenous TgCDPK3 (Toxoplasma gondii (endogenous in ME49wt)) (enzyme)
- binding [1]: binds

B1: Arginase-1-His (enzyme, UniProt P05089-1 1-322)
chain: MSAKSRTIGIIGAPFSKGQPRGGVEEGPTVLRKAGLLEKLKEQECDVKDYGDLPFADIPNDSPFQIVKNPRSVGKASEQLAGKVAEVKKNGRISLVLGGDHSLAIGSISGHARVHPDLGVIWVDAHTDINTPLTTTSGNLHGQPVSFLLKELKGKIPDVPGFSWVTPCISAKDIVYIGLRDVDPGEHYILKTLGIKYFSMTEVDRLGIGKVMEETLSYLLGRKKRPIHLSFDVDGLDPSFTPATGTPVVGGLTYREGLYITEEIYKTGLLSGLDIMEVNPSLGKTPEEVTRTVNTAVAITLACFGLAREGNHKPIDYLNPPK
- binding [2]: binds

B2: Arginase-1 (in HEK293T cells) (enzyme, UniProt P05089-1 1-322)
chain: MSAKSRTIGIIGAPFSKGQPRGGVEEGPTVLRKAGLLEKLKEQECDVKDYGDLPFADIPNDSPFQIVKNPRSVGKASEQLAGKVAEVKKNGRISLVLGGDHSLAIGSISGHARVHPDLGVIWVDAHTDINTPLTTTSGNLHGQPVSFLLKELKGKIPDVPGFSWVTPCISAKDIVYIGLRDVDPGEHYILKTLGIKYFSMTEVDRLGIGKVMEETLSYLLGRKKRPIHLSFDVDGLDPSFTPATGTPVVGGLTYREGLYITEEIYKTGLLSGLDIMEVNPSLGKTPEEVTRTVNTAVAITLACFGLAREGNHKPIDYLNPPK
- binding [3]: binds
